PubChem BioAssay AID1508588 – Peter MacCallum Cancer Centre | 2020

- Assay: 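Genome-wide search for knock-downs that heighten vemurafenib action in melanoma cells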 (primary screen)
- Cells: human WM266.4 melanoma cells (BRAF V600 mutant)
- Knock-down reagent: siRNA pool against human genes, 40 nM
- Duration: 96 h from transfection to read-out
- Challenge: vemurafenib 300 nM (about IC25), added 48 h after transfection, for 48 h; comparison arm got DMSO vehicle only
- Measured: 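Ratios to non-targeting siRNA for cell gain, counted as DAPI nuclei after minus before drug and averaged over two replicates, and for absorbance-read medium lactate per cell; both binned into fold-change classes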
- Reading the numbers: cell gain with vemurafenib: higher = more cell gain than with non-targeting siRNA; lactate per cell with vemurafenib: higher = more lactate made per cell
- Hit rule: 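Enhancement is called by pairing each knock-down's vehicle-arm and drug-arm fold-change classes for viability or glycolysis; which class combinations qualify is not given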
- Calls: active = enhances vemurafenib effect; inactive = no enhancement seen
Here is an unselected part of about 18,000 reagents tested. In the full data, 790 (4.4%) were called active. 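Calls rest on a combination of fold-change classes in drug and vehicle arms, not all shown here.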 Entries without a mark were called inactive. The numbers tell different reagents against one gene apart.

After knock-down of FAR1 (fatty acyl-CoA reductase 1) the results were cell gain with vemurafenib 0.21 (active); lactate per cell with vemurafenib 0.08. KLHL22 (kelch like family member 22) scored cell gain with vemurafenib 0.72; lactate per cell with vemurafenib 0.9. VIPR2 (vasoactive intestinal peptide receptor 2) showed cell gain with vemurafenib 0.48; lactate per cell with vemurafenib 0.71. STARD8 (StAR related lipid transfer domain containing 8) scored cell gain with vemurafenib 0.84; lactate per cell with vemurafenib 1.09. WFDC1 (WAP four-disulfide core domain 1) showed cell gain with vemurafenib 0.84; lactate per cell with vemurafenib 0.64. FGF19 (fibroblast growth factor 19) gave cell gain with vemurafenib 0.98; lactate per cell with vemurafenib 0.4.

Against RAPGEF6 (Rap guanine nucleotide exchange factor 6) the deposit lists cell gain with vemurafenib 0.41; lactate per cell with vemurafenib 1.21. Silencing of SAMD7 (sterile alpha motif domain containing 7) came out at: cell gain with vemurafenib 0.62; lactate per cell with vemurafenib 0.66. For CPEB4 (cytoplasmic polyadenylation element binding protein 4), the entry reads cell gain with vemurafenib 0.45; lactate per cell with vemurafenib 0.88. Knock-down of PIK3CD resulted in: cell gain with vemurafenib 0.61; lactate per cell with vemurafenib 1.32. PCYT1B (phosphate cytidylyltransferase 1B, choline) gave cell gain with vemurafenib 0.5; lactate per cell with vemurafenib 1.48. Knock-down of EFHD2 (EF-hand domain family member D2) resulted in: cell gain with vemurafenib 0.23; lactate per cell with vemurafenib 0.77.

After knock-down of SERTAD3 (SERTA domain containing 3), the record shows cell gain with vemurafenib 0.38; lactate per cell with vemurafenib 1.1. CHMP1A (charged multivesicular body protein 1A) showed cell gain with vemurafenib 0.66; lactate per cell with vemurafenib 1.56. After knock-down of MND1 (meiotic nuclear divisions 1) the results were cell gain with vemurafenib 0.11; lactate per cell with vemurafenib 1.38. Against ZNF233 (zinc finger protein 233), the entry reads cell gain with vemurafenib 0.74; lactate per cell with vemurafenib 1.17. MOAP1 (modulator of apoptosis 1) showed cell gain with vemurafenib 0.6; lactate per cell with vemurafenib 1.01. After knock-down of SLC67A2, the screen gave cell gain with vemurafenib 0.45; lactate per cell with vemurafenib 1.16.

With knock-down of CKMT1A (creatine kinase, mitochondrial 1A), the screen gave cell gain with vemurafenib 0.69; lactate per cell with vemurafenib 0.84. With knock-down of DSCAML1 (DS cell adhesion molecule like 1), the screen gave cell gain with vemurafenib 0.22; lactate per cell with vemurafenib 1.06. Against MAP3K2 (mitogen-activated protein kinase kinase kinase 2), the entry reads cell gain with vemurafenib 0.65; lactate per cell with vemurafenib 1.34. Against PXDN (peroxidasin), the values are cell gain with vemurafenib 0.63; lactate per cell with vemurafenib 0.3. Silencing of UGT1A5 (UDP glucuronosyltransferase family 1 member A5) resulted in: cell gain with vemurafenib 0.68; lactate per cell with vemurafenib 0.88. MRPL14 (mitochondrial ribosomal protein L14) gave cell gain with vemurafenib 0.69; lactate per cell with vemurafenib 0.88.

CNNM4 scored cell gain with vemurafenib 0.84; lactate per cell with vemurafenib 0.57. After knock-down of ZNF28 (zinc finger protein 28), the record shows cell gain with vemurafenib 0.72; lactate per cell with vemurafenib 1.19. MRC1 (mannose receptor C-type 1) #1 scored cell gain with vemurafenib 0.84; lactate per cell with vemurafenib 0.52. Silencing of MRC1 (mannose receptor C-type 1) #2 gave: cell gain with vemurafenib 0.88; lactate per cell with vemurafenib 0.62.

Records above whose gene name starts with F or f:
FAR1 (fatty acyl-CoA reductase 1) — cell gain with vemurafenib = 0.21 (active); lactate per cell with vemurafenib = 0.08
FGF19 (fibroblast growth factor 19) — cell gain with vemurafenib = 0.98; lactate per cell with vemurafenib = 0.4
